Data published in paper PMC3660569.
These are yes or no findings as the source states them, for the method shown. Binding seen in cells or lysates may run through a third protein. Some results given as binding are weak or reduced against the parent protein; the word gives no strength. Tags and fused reporters may be left off the sequences shown.

Sequences of proteins named here, by UniProt entry; tags and fusion partners are left off.
UniProt P0C0U1: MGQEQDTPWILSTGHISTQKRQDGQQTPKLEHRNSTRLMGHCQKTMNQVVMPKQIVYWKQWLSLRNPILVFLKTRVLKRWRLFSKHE

Biological target: PB1-F2 from A/Puerto Rico/8/34(H1N1), myc-tagged (influenza A virus A/Puerto Rico/8/34(H1N1)) (UniProt P0C0U1)
Test: co-IP

B1: Flag tagged IKKβ (enzyme, UniProt O14920 1-756)
chain: MSWSPSLTTQTCGAWEMKERLGTGGFGNVIRWHNQETGEQIAIKQCRQELSPRNRERWCLEIQIMRRLTHPNVVAARDVPEGMQNLAPNDLPLLAMEYCQGGDLRKYLNQFENCCGLREGAILTLLSDIASALRYLHENRIIHRDLKPENIVLQQGEQRLIHKIIDLGYAKELDQGSLCTSFVGTLQYLAPELLEQQKYTVTVDYWSFGTLAFECITGFRPFLPNWQPVQWHSKVRQKSEVDIVVSEDLNGTVKFSSSLPYPNNLNSVLAERLEKWLQLMLMWHPRQRGTDPTYGPNGCFKALDDILNLKLVHILNMVTGTIHTYPVTEDESLQSLKARIQQDTGIPEEDQELLQEAGLALIPDKPATQCISDGKLNEGHTLDMDLVFLFDNSKITYETQISPRPQPESVSCILQEPKRNLAFFQLRKVWGQVWHSIQTLKEDCNRLQQGQRAAMMNLLRNNSCLSKMKNSMASMSQQLKAKLDFFKTSIQIDLEKYSEQTEFGITSDKLLLAWREMEQAVELCGRENEVKLLVERMMALQTDIVDLQRSPMGRKQGGTLDDLEEQARELYRRLREKPRDQRTEGDSQEMVRLLLQAIQSFEKKVRVIYTQLSKTVVCKQKALELLPKVEEVVSLMNEDEKTVVRLQEKRQKELWNLLKIACSKVRGPVSGSPDSMNASRLSQPGQLMSQPSTASNSLPEPAKKSEELVAEAHNLCTLLENAIQDTVREQDQSFTALDWSWLQTEEEEHSCLEQAS
- binding: binds
